Results are given in words; binding and its absence hold for the method and conditions named. In cells and extracts the contact can be indirect. Sequences can lack the tags named with a protein.
Target: T1, GST-PER2 (human) (UniProt O15055)
T1 sequence: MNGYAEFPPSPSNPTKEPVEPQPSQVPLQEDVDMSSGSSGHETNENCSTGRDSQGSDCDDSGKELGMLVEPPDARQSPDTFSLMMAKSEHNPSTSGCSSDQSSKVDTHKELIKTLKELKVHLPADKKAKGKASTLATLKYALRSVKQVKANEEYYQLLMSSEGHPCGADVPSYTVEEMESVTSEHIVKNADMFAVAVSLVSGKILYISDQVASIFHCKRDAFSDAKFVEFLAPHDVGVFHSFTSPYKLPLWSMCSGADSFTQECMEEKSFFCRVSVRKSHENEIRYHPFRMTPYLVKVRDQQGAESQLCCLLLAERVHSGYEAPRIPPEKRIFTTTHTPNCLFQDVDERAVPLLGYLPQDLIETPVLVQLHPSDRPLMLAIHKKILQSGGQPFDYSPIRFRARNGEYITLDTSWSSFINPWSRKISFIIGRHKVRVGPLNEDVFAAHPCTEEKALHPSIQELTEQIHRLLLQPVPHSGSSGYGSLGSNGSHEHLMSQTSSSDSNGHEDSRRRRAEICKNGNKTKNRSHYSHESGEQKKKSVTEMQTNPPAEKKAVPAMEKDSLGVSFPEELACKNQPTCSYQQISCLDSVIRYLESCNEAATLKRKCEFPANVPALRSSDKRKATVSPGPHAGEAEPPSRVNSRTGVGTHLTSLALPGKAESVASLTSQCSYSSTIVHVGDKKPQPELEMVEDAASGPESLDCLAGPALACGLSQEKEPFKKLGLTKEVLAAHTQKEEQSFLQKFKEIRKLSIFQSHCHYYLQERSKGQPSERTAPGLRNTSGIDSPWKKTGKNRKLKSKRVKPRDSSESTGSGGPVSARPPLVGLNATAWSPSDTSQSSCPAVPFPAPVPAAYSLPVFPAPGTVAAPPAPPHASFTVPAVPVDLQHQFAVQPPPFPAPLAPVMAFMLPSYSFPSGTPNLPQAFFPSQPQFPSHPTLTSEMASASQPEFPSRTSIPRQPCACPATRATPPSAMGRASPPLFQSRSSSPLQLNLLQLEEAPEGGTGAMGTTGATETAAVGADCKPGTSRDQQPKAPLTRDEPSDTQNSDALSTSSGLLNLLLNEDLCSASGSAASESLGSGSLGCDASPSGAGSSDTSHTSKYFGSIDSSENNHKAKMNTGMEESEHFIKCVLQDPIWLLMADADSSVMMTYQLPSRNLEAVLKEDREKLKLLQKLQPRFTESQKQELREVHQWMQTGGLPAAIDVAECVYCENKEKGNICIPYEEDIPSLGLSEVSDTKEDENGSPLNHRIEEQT
Test: pull-down; GST-PER2 or GST-HSP70 captured on glutathione agarose from bacterial lysates (1 h, 4 °C); about 100 µg fusion protein incubated with the target proteins for 4 h in vitro; eluted with glutathione, western blot (Pierce GST Protein Interaction Pull-down Kit)

AKT, target protein of the GST pull-down
binding: no binding

Reference: paper PMC11926231
